“Also recorded” adds a separate entry of the source. At least one peptide structure holds a part that was inferred or is arguable (an end, a ring closure or a residue).
What was measured:
Assay type in all cases: in vivo
[1] = tested on: CNS-specific GLP-1R−/− mice; assay: Body weight and glucose tolerance in CNS-specific GLP-1R-/- mice on HFHSD
[2] = tested on: diet-induced obese (DIO) mice; assay: Indirect calorimetry in DIO mice (energy expenditure, RER, home-cage activity, food intake)
Method: For pharmacology studies on energy metabolism in obese mice (DIO mice), male C57Bl/6j mice (Jackson Laboratories) were fed a diabetogenic diet (Research Diets D12331), which is a high-sucrose diet with 58% kcal from fat 25.5% kcal from carbohydrates, and 16.4% kcal from protein. Dietary challenges began at 8 weeks of age. HFHSD mice were single- or group-housed on a 12:12-h light-dark cycle at 22° C. with free access to food and water. Mice were maintained under these conditions for a minimum of 16 weeks before initiation of pharmacological studies and were between the ages of 6 months to 12 months old. All injections and tests were performed during the light cycle. Compounds were administered in a vehicle of 1% Tween-80 and 1% DMSO and were given by daily subcutaneous injections at the indicated doses at a volume of 5 μl per g body weight. Mice were randomized and evenly distributed to test groups according to body weight and body composition. If ex vivo molecular biology/histology/biochemistry analyses were performed, the entire group of mice for each treatment was analyzed and scored in a blinded fashion. Energy intake, energy expenditure, respiratory exchange ratio, and home-cage activity were assessed using a combined indirect calorimetry system (TSE Systems). O2 consumption and CO2 production were measured every 10 min for a total of up to 160 h (after 24 h of adaptation) to determine the respiratory quotient and energy expenditure after an initial treatment regimen. Food intake was determined continuously for the same time as the indirect calorimetry assessments by integration of scales into the sealed cage environment. Home-cage locomotor activity was determined using a multidimensional infrared light beam system with beams scanning the bottom and top levels of the cage, and activity being expressed as beam breaks.

[3] = tested on: global GLP-1R−/− mice; assay: Body weight and glucose tolerance in global GLP-1R-/- mice made obese by HFHSD
[4] = tested on: diet-induced obese (DIO) mice; assay: Weight-lowering and metabolic pharmacology in diet-induced obese mice on HFHSD
Method: For pharmacology studies on energy metabolism in obese mice (DIO mice), male C57Bl/6j mice (Jackson Laboratories) were fed a diabetogenic diet (Research Diets D12331), which is a high-sucrose diet with 58% kcal from fat 25.5% kcal from carbohydrates, and 16.4% kcal from protein. Dietary challenges began at 8 weeks of age. HFHSD mice were single- or group-housed on a 12:12-h light-dark cycle at 22° C. with free access to food and water. Mice were maintained under these conditions for a minimum of 16 weeks before initiation of pharmacological studies and were between the ages of 6 months to 12 months old. All injections and tests were performed during the light cycle. Compounds were administered in a vehicle of 1% Tween-80 and 1% DMSO and were given by daily subcutaneous injections at the indicated doses at a volume of 5 μl per g body weight. Mice were randomized and evenly distributed to test groups according to body weight and body composition. If ex vivo molecular biology/histology/biochemistry analyses were performed, the entire group of mice for each treatment was analyzed and scored in a blinded fashion.
Compounds were administered by repeated subcutaneous injections in the middle of the light phase at the indicated doses with the indicated durations. Co-administration of compounds was administered by single formulated injections. Body weights and food intake were measured every day or every other day after the first injection. All studies with wild-type mice were performed with a group size of n=8 or greater using mice on a C57B16j background.
For assessment of intraperitoneal glucose tolerance during chronic treatment, the challenge tests were performed at least 24 hours after the last administration of compounds. The investigators were not blinded to group allocation during the in vivo experiments or to the assessment of longitudinal endpoints. All rodent studies were approved by and performed according to the guidelines of the Institutional Animal Care and Use Committee of the Helmholtz Center Munich, University of Cincinnati, Universite de Lyon, and in accordance with guidelines of the Association for the Assessment and Accreditation of Laboratory and Animal Care (AAALAC # Unit Number: 001057) and appropriate federal, state and local guidelines, respectively.
Whole-body composition (fat and lean mass) was measured using nuclear magnetic resonance technology (EchoMRI).

[5] = tested on: diet-induced obese (DIO) mice; assay: Plasma cholesterol in DIO mice; conditions: versus pair-fed mice and systemic T3 (FIG. 6H)

For `CC[C@H](C)[C@H](NC(=O)[C@H](Cc1ccccc1)NC(=O)[C@H](CCC(=O)O)NC(=O)[C@H](CCCCN)NC(=O)[C@H](C)NC(=O)[C@H](C)NC(=O)[C@H](CCC(N)=O)NC(=O)[C@H](CCC(=O)O)NC(=O)[C@H](CCC(=O)O)NC(=O)[C@H](CC(C)C)NC(=O)[C@H](Cc1ccc(O)cc1)NC(=O)[C@H](CO)NC(=O)[C@H](CO)NC(=O)[C@@H](NC(=O)[C@H](CC(=O)O)NC(=O)[C@H](CO)NC(=O)[C@@H](NC(=O)[C@H](Cc1ccccc1)NC(=O)[C@@H](NC(=O)CNC(=O)[C@H](CCC(=O)O)NC(=O)C(C)(C)NC(=O)[C@@H](N)Cc1c[nH]cn1)[C@@H](C)O)[C@@H](C)O)C(C)C)C(=O)N[C@@H](C)C(=O)N[C@@H](Cc1c[nH]c2ccccc12)C(=O)N[C@@H](CC(C)C)C(=O)N[C@H](C(=O)N[C@@H](CCCCN)C(=O)NCC(=O)NCC(=O)N1CCC[C@H]1C(=O)N[C@@H](CO)C(=O)N[C@@H](CO)C(=O)NCC(=O)N[C@@H](C)C(=O)N1CCC[C@H]1C(=O)N1CCC[C@H]1C(=O)N1CCC[C@H]1C(=O)N[C@@H](CO)C(=O)N[C@@H](CCCCNC(=O)CC[C@H](NC(=O)[C@@H](N)Cc1cc(I)c(Oc2ccc(O)c(I)c2)c(I)c1)C(=O)O)C(N)=O)C(C)C` [IUB686, IUB48-(gE-T3-NH2)-amide], the “effect to lower body weight” value ([1]; HFHSD) was “substantially blunted”, the “improved glucose tolerance, versus wild-type mice” value ([1]; chronic treatment) was “preserved” and the “body weight loss during calorimetry study” value ([2]; DIO mice (FIG. 6E)) was “loss of body weight”. The “home cage / ambulatory activity” value ([2]; DIO mice (FIG. 6F)) was “did not cause an increase in ambulatory activity”, the “respiratory exchange ratio (RER)” value ([2]; DIO mice (FIG. 6G)) was “decrease in the respiratory exchange ratio (RER)” and the whole-body energy expenditure ([2]; DIO mice, indirect calorimetry (FIG. 6C)) was “substantially increased whole-body energy expenditure; also recorded: significantly less energy expenditure than systemic T3”. For the same compound, the “effect to improve glucose tolerance, relative to wild-type mice” value [3] was “completely lost”, the “effect to lower body weight, relative to wild-type mice” value [3] was “completely lost” and the food intake ([4]; DIO mice (FIG. 5C)) was “dose-dependent reduction in food intake”. The “effect on body weight” value ([4]; DIO mice on HFHSD, equimolar doses, daily s.c. (FIG. 5A)) was “significantly lowered body weight in a dose-dependent manner”, the “absolute decrease in body weight from baseline” value ([4]; DIO mice, 100 nmoles/kg, daily subcutaneous treatment, after a week (FIG. 5A)) was 15% and the glucose tolerance ([4]; DIO mice, higher dose, equimolar (FIG. 5D)) was “improved glucose tolerance”. For the same compound, the “body weight lowering versus pair-fed controls” value ([4]; DIO mice, pair-fed comparison (FIG. 6B)) was “greater body weight lowering than the pair-fed controls” and the plasma cholesterol levels [5] was “improved plasma cholesterol levels independent of caloric restriction; also recorded: greater than that achieved by systemic T3 alone”.

— patent US20190290772A1 (published 2019)
